Source: publication doi:10.1101/2021.12.28.474342

Sequences of proteins named here, by UniProt entry; tags and fusion partners are left off.
UniProt O08573: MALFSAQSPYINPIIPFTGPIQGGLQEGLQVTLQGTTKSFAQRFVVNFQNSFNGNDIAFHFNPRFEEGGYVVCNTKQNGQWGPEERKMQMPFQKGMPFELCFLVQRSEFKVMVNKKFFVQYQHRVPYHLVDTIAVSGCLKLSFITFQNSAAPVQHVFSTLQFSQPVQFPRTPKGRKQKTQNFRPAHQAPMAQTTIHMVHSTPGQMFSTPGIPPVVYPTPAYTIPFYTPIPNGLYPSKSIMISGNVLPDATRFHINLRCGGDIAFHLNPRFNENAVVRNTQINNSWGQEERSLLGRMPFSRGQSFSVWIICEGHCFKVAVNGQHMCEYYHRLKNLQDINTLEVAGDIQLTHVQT

T1: HA-tagged mGBP2 (murine guanylate binding protein 2) (mouse) (UniProt Q9Z0E6)
T1 sequence: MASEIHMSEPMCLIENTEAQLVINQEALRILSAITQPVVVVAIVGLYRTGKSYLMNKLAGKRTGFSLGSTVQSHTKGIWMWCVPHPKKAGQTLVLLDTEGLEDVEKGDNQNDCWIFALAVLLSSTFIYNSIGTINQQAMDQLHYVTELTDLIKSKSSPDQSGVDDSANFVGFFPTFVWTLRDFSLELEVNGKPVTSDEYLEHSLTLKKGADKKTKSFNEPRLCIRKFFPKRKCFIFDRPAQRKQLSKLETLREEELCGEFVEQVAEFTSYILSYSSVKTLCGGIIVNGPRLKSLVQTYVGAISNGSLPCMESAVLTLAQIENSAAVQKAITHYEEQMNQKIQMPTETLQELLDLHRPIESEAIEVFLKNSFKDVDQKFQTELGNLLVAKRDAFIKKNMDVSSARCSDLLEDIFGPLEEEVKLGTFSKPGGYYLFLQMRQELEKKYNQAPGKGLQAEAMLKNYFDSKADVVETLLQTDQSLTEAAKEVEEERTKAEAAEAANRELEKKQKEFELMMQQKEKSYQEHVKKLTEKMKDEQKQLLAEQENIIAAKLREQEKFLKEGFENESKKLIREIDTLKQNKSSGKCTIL

B1: mGBP1 (murine guanylate binding protein 1) (protein, UniProt Q01514 1-589)
chain: MASEIHMSEPMCLIENTEAQLVINQEALRILSAITQPVVVVAIVGLYRTGKSYLMNKLAGKRTGFSLGSTVQSHTKGIWMWCVPHPKKAGQTLVLLDTEGLEDVEKGDNQNDCWIFALAVLLSSTFIYNSIGTINQQAMDQLHYVTELTDLIKSKSSPDQSDVDNSANFVGFFPIFVWTLRDFSLDLEFDGESITPDEYLETSLALRKGTDENTKKFNMPRLCIRKFFPKRKCFIFDRPGDRKQLSKLEWIQEDQLNKEFVEQVAEFTSYIFSYSGVKTLSGGITVNGPRLKSLVQTYVSAICSGELPCMENAVLTLAQIENSAAVQKAITYYEEQMNQKIHMPTETLQELLDLHRTCEREAIEVFMKNSFKDVDQKFQEELGAQLEAKRDAFVKKNMDMSSAHCSDLLEGLFAHLEEEVKQGTFYKPGGYYLFLQRKQELEKKYIQTPGKGLQAEVMLRKYFESKEDLADTLLKMDQSLTEKEKQIEMERIKAEAAEAANRALAEMQKKHEMLMEQKEQSYQEHMKQLTEKMEQERKELMAEQQRIISLKLQEQERLLKQGFQNESLQLRQEIEKIKNMPPPRSCTIL
B2: mGBP5 (murine guanylate binding protein 5) (protein, UniProt Q8CFB4 1-590)
chain: MAPEIHMPEPLCLIGSTEGHLVTNQEALKILSAITQPVVVVAIVGLYRTGKSYLMNKLAGKEKGFSVGSTVQSHTKGIWMWCVPHPQKPDHTLVLLDTEGLGDVEKDDKKNDTQIFALAILLSSTFVYNTMNKIDQGAIDLLHNVTELTDLLRTRNSSDSNQTEGEGPADMSFFPDLVWTLRDFFLDLQANGHAITSDEYLENSLKLKQGSDERTQTFNLPRLCIQKFFPVKKCFVFDAPALGSKLSQLPTLSNEELNSDFVQDLSEFCSHIFTQSKTKTLPGGIQVNGPRLESLVLTYVDAINSGALPSIENTVVTLARRENSAAVQKAIGHYDQLMSEKVQLPTETLQELLDLHRTCEREAIEIFRKHSFKDEGEFFQKELESLLSAKQDEICKKNADASAALCSTLLGSIFKPLEQEVAQEFYHKPGGHKLFLQRMEQLKANYRQQPGKGTQAEEVLQTYLNAKETVSRTILQTDQVLTDKEIQSKAEQERAEAARLEAQRLEAIRIQEEQRKAEMERQHQEQLRQIALEKARVAQEQQWILKQRAQEEADRIKAEQEAQLRALQQQLQHMREMNHHRRHHHDCVIS

How the values were obtained:
[1] = biological target: T1, HA-tagged mGBP2 (murine guanylate binding protein 2) (mouse); assay: affinity purification with mass spectrometry
[2] = biological target: T1, HA-tagged mGBP2 (murine guanylate binding protein 2) (mouse); assay: affinity purification with mass spectrometry; remark: listed apart in the source

| Molecule | binding [1] | binding [2] |
| --- | --- | --- |
| Galectin-9 (Gal9), endogenous (from UniProt O08573 1-353) | binds | – |
| B1 | – | binds |
| B2 | – | binds |

Where two headings read alike, the source gives them in different places. No constants are given. Whether binding was seen depends on the method and setting. In cells and extracts the contact can be indirect. These calls come from enrichment with a bait or labelling near it, and not all partners need be listed. Sequences can lack the tags named with a protein.
